This is an account of results in article PMC10221132 (Pharmaceutics, 2023).

The data set in a line: general procedure: Fmoc solid-phase peptide synthesis; preloaded (L-Arg or D-Ala) 2-Cl-Trt resin; HBTU/HOBt; HATU for double couplings at Pro; PyBOP/HOBt/DIPEA for cyclization. The conditions noted are these: conjugation step.

Strings that start with PEPTIDE1 are HELM notation: dots part the residues, brackets hold end groups and non-standard residues.

As to PAPTPL-I-DA7R, where the note is “on PAPTPL-I”, the conjugation yield worked out at 13% yield.

Substance PAPTPL-Teg-cA7R gave a conjugation yield (head-to-tail ring) of 47% yield.

For “PEPTIDE1{[PAPTPL-Teg-trz-C4CO].[dR].[dP].[dP].[dL].[dW].[dT].[dA]}$$$$V2.0”, the conjugation yield is reported as 76% yield.
